Data taken from ChEMBL document CHEMBL3988442, “University of Dundee, Small-Polar-MMV Screening Library” (2021).

By UniProt entry, the sequences of proteins in these tests, tags left out.
UniProt E9BF75, entry or part of it: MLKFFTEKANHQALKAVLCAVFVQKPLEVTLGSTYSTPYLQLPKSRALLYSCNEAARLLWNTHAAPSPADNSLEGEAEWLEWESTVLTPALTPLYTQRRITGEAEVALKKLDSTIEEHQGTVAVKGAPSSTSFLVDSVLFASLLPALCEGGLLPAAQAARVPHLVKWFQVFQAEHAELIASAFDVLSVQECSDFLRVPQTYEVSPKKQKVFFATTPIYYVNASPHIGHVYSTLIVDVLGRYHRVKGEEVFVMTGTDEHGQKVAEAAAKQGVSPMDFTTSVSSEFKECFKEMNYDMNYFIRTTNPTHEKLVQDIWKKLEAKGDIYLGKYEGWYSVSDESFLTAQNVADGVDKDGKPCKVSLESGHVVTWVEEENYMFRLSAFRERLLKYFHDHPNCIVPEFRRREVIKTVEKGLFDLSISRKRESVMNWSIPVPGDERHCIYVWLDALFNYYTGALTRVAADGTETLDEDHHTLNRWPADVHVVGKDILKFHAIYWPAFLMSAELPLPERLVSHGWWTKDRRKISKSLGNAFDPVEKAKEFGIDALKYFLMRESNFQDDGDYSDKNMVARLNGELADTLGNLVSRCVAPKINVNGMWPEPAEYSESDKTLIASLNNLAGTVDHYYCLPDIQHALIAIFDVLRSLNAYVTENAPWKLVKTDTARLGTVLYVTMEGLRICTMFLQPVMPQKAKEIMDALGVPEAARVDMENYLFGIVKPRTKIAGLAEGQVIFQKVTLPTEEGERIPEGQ

A: 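Assay on Mycobacterium tuberculosis, filed only as a heat shock assay from Cornell; the read-out is not stated. The concentration is filed as 10 mM, unlikely as a test dose, so the dose is not known. Direction is inferred from retests: higher values go with stronger inhibition. Of about 69,000 compounds tested this way, about 930 (1.4%) reached 50% or more in at least one test.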
B: 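Methionyl-tRNA synthetase (putative), Leishmania donovani (UniProt E9BF75). Primary screen of methionyl-tRNA synthetase; the read-out is not stated. The test concentration is not given. Values are per cent inhibition. Size under these conditions: about 68,000 compounds, about 24 of them at 50% or above in at least one test.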
C: 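Whole-cell assay for inhibitors of Mycobacterium tuberculosis growth, labelled Cornell in the record; the read-out is not stated. The concentration is filed as 10 mM, unlikely as a test dose, so the dose is not known. The record gives no direction; compounds strong in two other growth screens of this library score well above the rest, so higher reads as stronger inhibition. Size under these conditions: about 53,000 compounds, about 900 of them at 50% or above in at least one test.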

Results are percentages, as filed. The record does not define 0% and 100%; most values in the screen are far below 50% and negative numbers occur (in some assays of this library far below -100). The compounds are a random part of those screened. A dash means the value is not listed here; it may have been measured.

Compound | A | B | C
CCC(CCO)NS(=O)(=O)c1ccc(Br)cn1 (stereo not given) | -7.682 | 12.43 | -
CN(Cc1ccc(Cl)s1)C(=O)NCCN1CCCCCC1=O | 0.9189 | 17.73 | 12.64
Cc1cc(C)c(CNC(=O)c2ccc3c(c2)CCC3)c(=O)[nH]1 | -20.25 | 24.58 | -
Cc1cc(C(=O)Nc2cccn(Cc3ccc(F)cc3)c2=O)no1 | 10.38 | 8.877 | 24.65
Cc1ccc(O)c(CNC2CCc3nc(C(C)C)nn3C2)n1 (stereo not given) | -4.668 | 13.38 | 2.278
COCc1ncn2c1CN(C(=O)c1cccc3cccnc13)CC2.O=C(O)C(F)(F)F | -14.48 | - | -
Cc1noc(C(C)N2CCN(Cc3nnc(C4CC4)o3)CC2)n1 (stereo not given) | 0.9717 | 11.27 | 6.702
CCOC(=O)N1CCN(CC(=O)Nc2ccc(F)cc2Cl)CC1 | 9.454 | 13.48 | 18.86
CN1C(=O)COc2ccc(NC(=O)CCc3nc4cccnc4[nH]3)cc21 | 15.79 | 15.33 | 39.26
O=C(Nc1ccc(Br)cc1F)c1ccc(N2CCOCC2)nn1 | -14.05 | 4.237 | -1.334
COc1ccccc1S(=O)(=O)NCC(c1cccn1C)N(C)C (stereo not given) | 8.342 | 12.24 | 15.37
Cc1ccn2ncc(C(=O)N3CCCC(n4nc(C)nc4C)C3)c2n1 (stereo not given) | 30 | 11.34 | -9.1
CCN1CCC2(CC1)CN(CCO)c1ccccc12 | -15.7 | 1.812 | -37.58
O=C(O)C(F)(F)F.[H][C@]12CN(Cc3cccnc3)C(=O)[C@@]1([H])CN(S(=O)(=O)CC)C2 | -16.22 | - | 3.056
Cc1ccc(C(=O)N2CCN(CCCSCC#N)CC2)cc1F | -19.41 | -1.227 | 18.48
COc1ccc(C2CCCN2C(=O)NCCCn2cccn2)cc1 (stereo not given) | -22.44 | 9.019 | 6.904
COCCC(=O)N1CCC2(CN(Cc3cccc(F)c3)C2)C1 | -4.444 | 16.48 | -56.08
COc1ccccc1C(C#N)NC(=O)c1cccc2c1oc(=O)n2C (stereo not given) | -11.65 | 5.861 | -
CN(c1ncccc1C#N)C1CCN(CCc2ccncc2)CC1 | -20.28 | 11.03 | -7.165
Cc1ccnn1CCN1CCCC2(CCC(=O)N(C3CCCC3)C2)C1 (stereo not given) | -10.82 | -3.096 | -12.69
CC(C)c1nnc2n1CCN(C(=O)CN1CCc3sccc3C1)C2 | 3.631 | 10.2 | -
CCSCCC(C)N(C)C(=O)c1cc(C)on1 (stereo not given) | 3.774 | 12.41 | 33.16
N#Cc1cnc(NC2CCN(C(=O)C3CC3)CC2)c(Cl)c1 | 11.18 | 9.429 | -15.49
Cc1ccc(S(=O)(=O)NC2CCC(=O)NC2)cc1Br (stereo not given) | 5.575 | 16.85 | -13.12
CCOC(=O)COc1nc(CC(C)C)c2c(c1C#N)CCC2 | 5.56 | -0.8621 | -22.94
Cc1cc(C(=O)N2C[C@@H]3COC[C@]3(CN(C)C)C2)sc1C | - | -10.14 | -
CCCNC(=O)C[C@@H]1CCN(C(=O)c2cccnc2)C[C@@H]1CC | -36.41 | 5.495 | -
Cn1ccnc1NC[C@@H]1CCC[C@@H]2CN(CC3CC3)C[C@@H]21 | - | 9.058 | -
CN(Cc1ccco1)C(=O)NC1CCCN(c2ncccn2)C1 (stereo not given) | -0.3408 | 9.29 | -
O=C(C1=NN(Cc2ccccc2)c2ccccc2S1(=O)=O)N1CCCC1 | 12.45 | 10.79 | 0.4403
COCC(=O)N1CCC2(CCC2N(C)Cc2ccco2)CC1.O=C(O)C(F)(F)F (stereo not given) | -22.09 | - | -
Cc1cc(=O)n(CCNS(=O)(=O)c2ccc(F)c(Cl)c2)cn1 | -4.022 | 19.24 | 15.55
CC(C)(C)CN[C@@H]1CO[C@H](CNC(=O)c2ccncc2)[C@H]1O | 4.869 | 10.53 | 0.3949
CCNC(=O)NC(=O)C(C)N1CCCc2cc(OC)ccc2C1 (stereo not given) | 7.985 | 14.44 | 27.23
COCC(=O)N1CCCn2c(CN3CCOCC3)nnc2C1.O=C(O)C(F)(F)F | -20.35 | - | 11.94
CC(NC(=O)c1ccc(F)cc1F)c1cnn(C)c1 (stereo not given) | -3.349 | 7.833 | -20.35
Cc1cccc(NC(=O)N2CCOCC(CN(C)C)C2)c1C (stereo not given) | 14.18 | 13.68 | -15.36
Cc1noc(C)c1CC(=O)NCCc1cccs1 | -22.07 | 2.375 | -53.57
CC(NC(=O)N1CCCC1)c1ccc(S(N)(=O)=O)cc1 (stereo not given) | -2.642 | 11.48 | -
Cc1nc(-c2ccccc2)n(CC(=O)NC2CCCCC2)n1 | -4.715 | 16.24 | -49.43
Cc1cccc(C(=O)N2CCc3ncnc(C4CCOC4)c3CC2)n1 (stereo not given) | - | 8.242 | -
O=C(O)C(F)(F)F.O=C(c1ccccn1)N1CCC2(CC1)COC(COCC1CC1)C2 (stereo not given) | -18.99 | - | 10.58
COc1cc(-c2n[nH]c(CC#N)n2)cc(OC)c1OC | -25.94 | 3.226 | -42.88
COc1cc(CNc2nc3c(c(=O)[nH]2)CCNC3)cc(OC)c1OC | 3.9 | 3.559 | -8.043
CC(C)(C)c1cnc(CN2CCC(NC(=O)NC3CCCCC3)CC2)o1 | -1.825 | 6.143 | 5.597
CNC(=O)c1cccc(C2CNCCN2C(=O)c2cccc(F)c2)c1 (stereo not given) | - | 2.083 | -
Cc1cc(N2CCC3(CCCN(CCO)C3=O)C2)nc2ccccc12 (stereo not given) | -34.02 | 14.86 | -1.947
CC(C#N)CN(C)C(=O)CCNC(=O)OCC(F)(F)F (stereo not given) | -2.807 | 19 | 3.094
CO[C@H]1CCN(S(=O)(=O)c2cn(C)cn2)[C@H]1Cc1ccncc1 | 3.927 | 13.36 | 9.369
CS(=O)(=O)NCc1n[nH]c2c1CCN(C(=O)c1ccsc1)C2 | -5.128 | 1.255 | -8.168
Cc1nnc(CN(C)C2CCN(c3cccc(-c4cscn4)c3)CC2)o1 | -1.703 | 9.6 | -
NC(=O)N1CCCN(CCCSCc2ccccc2)CC1 | -31.49 | 11.78 | -
Cc1nc(-c2cccc(C(=O)O)c2)cc(C2CCN(C(C)C)C2)n1 (stereo not given) | -23.7 | 18.53 | -
O=C(CNCc1ccccc1Cn1cccn1)Nc1cnccn1 | -15.33 | 6.005 | -
[H][C@]12CCN(C(=O)Cc3cccc(OC)c3)CC[C@@]1([H])S(=O)(=O)N(C)C2 | 18.21 | - | 3.548
CCOc1ccc(S(=O)(=O)NC(=O)CCC2CCCO2)cc1 (stereo not given) | 3.784 | 7.19 | 14.71
COc1ccc([C@@H]2CN(c3cc(C(=O)O)ccn3)C[C@H]2N(C)C)cc1 | -1.769 | 5.282 | -21.05
O=C(O)c1cccnc1CN1CCOc2ccccc2C1 | 6.653 | 10.86 | 4.798
Cc1cccc(C2CCCCCN2C(=O)c2cn(CC(N)=O)nn2)c1 (stereo not given) | 9.44 | 22.63 | 17.53
COC(=O)CNC(=O)CSCc1nc(O)c2cc(C)sc2n1 | 1.686 | -2.857 | -7.361

Repeated from the top, 6 entries:

Compound,A,B,C
CCC(CCO)NS(=O)(=O)c1ccc(Br)cn1 (stereo not given),-7.682,12.43,-
CN(Cc1ccc(Cl)s1)C(=O)NCCN1CCCCCC1=O,0.9189,17.73,12.64
Cc1cc(C)c(CNC(=O)c2ccc3c(c2)CCC3)c(=O)[nH]1,-20.25,24.58,-
Cc1cc(C(=O)Nc2cccn(Cc3ccc(F)cc3)c2=O)no1,10.38,8.877,24.65
Cc1ccc(O)c(CNC2CCc3nc(C(C)C)nn3C2)n1 (stereo not given),-4.668,13.38,2.278
COCc1ncn2c1CN(C(=O)c1cccc3cccnc13)CC2.O=C(O)C(F)(F)F,-14.48,-,-